Some of these results come from one statement about several compounds together. For at least one compound, name, drawing or mass did not settle the structure.
Target: T1, hSGLT3 (Homo sapiens, UniProt Q9NY91)
T1 construct: The complete hSGLT3 clone was created by ligation of this PCR product to the 3′-end of hSGLT3 at the HindIII site; expressed in transfected cells; host or cells: Xenopus laevis oocytes injected with hSGLT3 cRNA
T1 sequence (Q9NY91 1-659): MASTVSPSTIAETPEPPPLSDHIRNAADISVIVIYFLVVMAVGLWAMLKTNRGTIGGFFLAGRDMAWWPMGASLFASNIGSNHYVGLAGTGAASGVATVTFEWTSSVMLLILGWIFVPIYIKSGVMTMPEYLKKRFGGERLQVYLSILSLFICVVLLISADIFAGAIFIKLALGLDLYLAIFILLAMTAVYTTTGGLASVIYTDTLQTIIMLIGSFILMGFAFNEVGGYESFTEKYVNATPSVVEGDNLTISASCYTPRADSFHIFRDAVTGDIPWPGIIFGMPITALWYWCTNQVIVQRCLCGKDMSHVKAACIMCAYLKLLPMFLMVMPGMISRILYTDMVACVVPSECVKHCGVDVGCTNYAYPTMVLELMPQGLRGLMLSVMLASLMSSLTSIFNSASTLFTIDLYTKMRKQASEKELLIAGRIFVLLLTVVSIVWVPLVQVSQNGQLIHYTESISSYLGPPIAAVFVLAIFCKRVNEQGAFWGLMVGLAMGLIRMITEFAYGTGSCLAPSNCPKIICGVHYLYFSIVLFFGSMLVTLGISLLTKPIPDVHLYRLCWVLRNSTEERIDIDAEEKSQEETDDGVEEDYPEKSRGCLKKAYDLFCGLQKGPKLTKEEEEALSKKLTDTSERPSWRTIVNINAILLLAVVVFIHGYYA
Experiment: two-electrode voltage-clamp, membrane potential of hSGLT3-expressing Xenopus oocytes
Type: cell-based
Conditions: range printed with mixed units (nanomolar to micromolar); read-out: affinities to activate SGLT2
Procedure: Expression of hSGLT3 in oocytes. Stage VI oocytes from Xenopus laevis (Nasco, Fort Atkinson, Wis.) were defolliculated and injected with hSGLT3 cRNA and maintained at 18° C. in modified Barth's medium containing gentamycin (5 mg/ml) and penicillin (100 units/ml)/streptomycin (100 μg/ml). Each oocyte was injected with 20 ng of cRNA. Experiments were performed at 22±1° C., 3-9 days after the injection.
Two electrode-voltage clamp. Oocytes expressing SGLTs and control oocytes were placed in the chamber, impaled with the two electrodes and continuously superfused with the required medium (Loo et al. (1998) Proc. Natl. Acad. Sci. USA 95:7789-7794). Membrane potential changes and ionic currents were measured when adding different sugar concentrations. Sugar-specific changes in current were the difference between the values measured with sugar and the preceding value in buffer alone. […] In some experiments at low pH we simultaneously recorded the intracellular pH of the oocyte using the fluorescent dye BCECF-AM (15, 16). The apparent affinity (K0.5) and apparent maximal current (Imax) were calculated with the equation [1]=Imax. […]
Using the techniques described above, a two-electrode voltage-clamp was used to monitor hSGLT3's electrical properties in Xenopus oocytes. The oocytes were exposed to candidate compounds, and the depolarization of membrane potential was recorded.

**Q.** `CCN1C[C@H](O)[C@@H](O)[C@H](O)[C@H]1CO` [N-(n-ethyl)deoxynojirimycin] was tested. Which EC50 did it give?
**A.** 0.5 to 2 µM
